Among the data in PubChem BioAssay AID2685 (National Center for Advancing Translational Sciences (NCATS), 2010) are cell number change and AC50 values, retold here.

This test is described as follows: qHTS Assay for Lipid Storage Modulators in Drosophila S3 Cells.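 As to cell number change: cells counted by Cell Tracker Red CMTPX staining in the red channel.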 As to conditions: BODIPY lipid droplet fluorescence, 18-24 h; for cell number change: measured here: cell count max response, cells fed with added oleic acid. The method, boiled down:
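Laser-scanning cytometry quantifies lipid droplet accumulation (500–530 nm total intensity; droplet/cell object ratio) in oleic acid-fed (400 uM added) Drosophila S3 cells treated with a concentration series. 20 uM Triacsin C defined 100% inhibition.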
For orientation: Quantitative high-throughput screening tests each substance at several concentrations.

The mark [1] stands for this setting: measured here: cell number channel AC50, cells fed with added oleic acid.
[2] abbreviates: measured here: lipid fluorescence (Fed channel) AC50, cells fed with added oleic acid.

Some of the results follow. Shown are side measurements of this screen, not its main read-out; they come without a call. Most of these compounds were active or inconclusive in the main read-out, so they are no random draw. Words in brackets tell the shape of the fitted curve; partial curves, single points and poor fits give uncertain potencies.

The AC50 is the concentration at which the activity in the assay is half-maximal. Lower therefore signals greater potency.

Take `COc1ccc(CC(=O)N2CCN(c3ccccn3)CC2)cc1OC`: the cell number change was 10.5%. In addition, under setting [1], the half-maximal activity concentration (AC50) is 2.06 µM [rising, partial curve]. For the same compound, under setting [2], the AC50 was 25.9 µM [rising, single point].
For the compound `CC1c2cc3c(cc2CCN1C(=O)c1ccc(C(F)(F)F)cc1)OCCCO3` (stereo unspecified), the cell number change was -4.72%. The AC50 under setting [1] is 4.61 µM [rising, single point]. In addition, the AC50 under setting [2] was 6.51 µM [rising, single point].
Consider `Cc1cc2c(C)nc(-c3ccccc3)nc2o1`, for which the cell number change stood at 1.53%. For the same compound, the AC50 under setting [1] is 0.326 µM [rising, partial curve]. Also, the AC50 under setting [2] was 0.164 µM [rising, full curve, poor fit].
Take `CCOc1ccc(/C=N\NC(=O)CC(=O)NCCc2ccccc2)cc1`: the cell number change is -8.29%. Further, under setting [2], the AC50 was 6.51 µM [falling, single point].
`COC(=O)c1ccccc1S(=O)(=O)N1CCC(C(=O)NCc2ccco2)CC1`: the cell number change was -12.4%. Besides, the half-maximal activity concentration (AC50) under setting [2] was 0.58 µM [falling, full curve].
With `CC(=O)NC(c1ccccc1)c1cc(Cl)c2cccnc2c1O` (stereo unspecified), the cell number change is -17.8%. Also, the AC50 under setting [2] is 6.51 µM [rising, single point].
Turning to `COc1cc(NC(=O)CSc2nnnn2-c2ccccc2)cc(OC)c1OC`, the cell number change was -8.65%. Further, the AC50 under setting [2] was 0.92 µM [rising, full curve, poor fit].
For `CC1(C)OC(=O)C(=CNc2ccccc2F)C(=O)O1`, the cell number change is -201%. The AC50 under setting [1] was 18.4 µM [falling, partial curve]. Moreover, under setting [2], the AC50 was 20.6 µM [falling, partial curve].
Regarding `CCCCn1c(N)c(N(CC)C(=O)CCc2ccccc2)c(=O)[nH]c1=O`, the cell number change came to 2.69%. For the same compound, the AC50 under setting [2] was 7.31 µM [falling, full curve, poor fit].
Regarding `CN1CCN(c2ccc(S(=O)(=O)N3CCCCC3)cc2NC(=O)COc2cccc(Cl)c2)CC1`, the cell number change stood at 16.3%. Moreover, the AC50 under setting [2] is 0.82 µM [rising, single point].
Turning to `Cc1ccc(C(=O)NCCCNC(=O)COc2ccc(C)c(C)c2)cn1`, the cell number change stood at 16.4%. For the same compound, the AC50 under setting [2] was 11.6 µM [falling, partial curve].
Take `COc1cccc(C2CC(c3ccccc3Cl)n3ncnc3N2)c1` (stereo unspecified): the cell number change is -32.7%. Under setting [1], the AC50 was 11.6 µM [falling, partial curve].
On to `COC(CNC(=O)Cn1ncc2ccsc2c1=O)OC`, for which the cell number change was -29%. In addition, the half-maximal activity concentration (AC50) under setting [2] is 0.731 µM [falling, full curve].
As for `CC(Sc1nnc(-c2cccs2)n1C1CC1)C(=O)NCC1CCCO1` (stereo unspecified), the cell number change was found to be 9.49%. Moreover, under setting [2], the AC50 is 6.51 µM [rising, single point].
Take `O=C(CN1CCCCC1)N1c2ccccc2Oc2ccccc21`: the cell number change stood at 3.62%. Also, under setting [2], the AC50 was 2.06 µM [falling, partial curve].
Take `Cc1ccccc1C(=O)Nc1ccnn1C1CCN(Cc2ccc(CO)o2)CC1`: the half-maximal activity concentration (AC50) under setting [2] was 10.3 µM [rising, partial curve].
Consider `CC(OC(=O)c1ccc2ccccc2n1)C(=O)Nc1ccc(N2CCOCC2)cc1` (stereo unspecified), for which the cell number change was -0.0714%. The half-maximal activity concentration (AC50) under setting [2] is 0.116 µM [rising, full curve, poor fit].
In the case of `c1ccc(COCCC2CO2)cc1` (stereo unspecified), the cell number change was determined as 17.5%. The AC50 under setting [2] is 29.1 µM [rising, single point].
For the compound `CC1CCN(C(=O)CN2C(=O)NC(c3ccccc3)(c3ccccc3)C2=O)CC1`, the cell number change was -3.76%. Also, the concentration at half-maximal activity (AC50) under setting [2] was 1.16 µM [falling, full curve, poor fit].
`O=c1ccc(/C=C/c2ccccc2)nn1Cc1ccccc1Cl`: the cell number change was -44.3%. The AC50 under setting [1] was 18.4 µM [falling, single point]. Also, the AC50 under setting [2] is 20.6 µM [falling, single point].
With `O=C(CN1C(=O)NC2(CCCCC2)C1=O)Nc1cc(C(F)(F)F)ccc1N1CCCC1`, the AC50 under setting [1] is 0.116 µM [falling, full curve, poor fit].
For `COc1ccc(CCNC(=O)c2nnc(Cc3c(F)cccc3Cl)o2)cc1OC`, the cell number change is -8.07%. For the same compound, the AC50 under setting [2] is 11.6 µM [rising, partial curve].
With `COc1ccc(OCc2nnc3n2N=C(c2ccc(C)cc2)CS3)cc1`, the AC50 reads like this: under setting [1], 0.116 µM [rising, partial curve, poor fit]; under setting [2], 0.00517 µM [rising, full curve, poor fit].
Turning to `COc1ccccc1NC(=O)c1ccc(S(=O)(=O)N2CCOCC2)cc1`, the cell number change is -2.69%.
Take `O=C(NCCOc1ccc(Cl)cc1)c1ccc2c(c1)OCCO2`: the cell number change was -23.2%. The AC50 under setting [2] is 18.4 µM [falling, single point].
In the case of `CNc1nc(-c2ccccc2)nc(-c2ccccc2)c1C#N`, the cell number change is -0.574%. Also, under setting [2], the half-maximal activity concentration (AC50) is 0.58 µM [rising, full curve].
Turning to `CC1CCC(N2CCN(S(=O)(=O)Cc3ccccc3)CC2)CC1` (stereo unspecified), the cell number change is -5.86%. Also, the AC50 under setting [2] is 3.26 µM [rising, partial curve, poor fit].
`Cc1ccc(NC(=S)NC(=O)c2ccc(-c3ccc(Cl)cc3)o2)c(O)c1`: the cell number change was -58.4%. Also, under setting [1], the AC50 was 16.4 µM [falling, partial curve]. The AC50 under setting [2] was 10.3 µM [falling, partial curve].
Regarding `O=C(CSc1nc2ncccc2[nH]1)Nc1ccc2c(c1)OCCO2`, the cell number change is 27%. Moreover, the AC50 under setting [2] was 29.1 µM [rising, single point].
In the case of `S=C(NCc1ccncc1)Nc1ccc(Cl)cc1Cl`, the cell number change is 0.216%.
As to `Cc1csc(N2CCN(c3cc4c(cc3Cl)nc(-c3ccncc3)n4CCCN3CCCC3)CC2)n1`, the cell number change is -4.49%. Under setting [2], the AC50 was 29.1 µM [rising, single point].
For the compound `COc1ccc(CNC(=O)C2CCN(S(=O)(=O)N3CCC4(CC3)OCCO4)CC2)c(OC)c1`, the cell number change turned out to be 16.9%. In addition, under setting [2], the AC50 was 11.6 µM [rising, partial curve, poor fit].
On to `Cc1cc(Cl)c2oc(C(=O)N3CCC(O)(c4ccccc4)CC3)c(C)c2c1`, for which the cell number change was -26.5%. For the same compound, the AC50 under setting [2] is 29.1 µM [rising, single point].
On to `NC(N)=NS(=O)(=O)c1ccc(NC(=S)NC(=O)Cc2ccc(Cl)cc2)cc1`, for which the cell number change was 18.7%.
On to `Cc1ccc(N(C(=O)CNC(=O)c2ccco2)C(C(=O)NC2CCCCC2)c2cccnc2)cc1C` (stereo unspecified), for which the cell number change came to 17.5%. Also, under setting [2], the AC50 is 0.116 µM [rising, single point].
As for `COc1cccc(/C(C)=N/Nc2ncc(Cl)cc2Cl)c1`, the cell number change was found to be 8.61%. Further, the AC50 under setting [2] was 5.17 µM [rising, partial curve, poor fit].
Take `COc1ccc(C(=O)Nc2ccccc2C(=O)N/N=C/c2ccncc2)cc1OC`: the cell number change was 10.7%. The AC50 under setting [1] is 5.17 µM [rising, partial curve, poor fit]. In addition, the AC50 under setting [2] is 1.03 µM [rising, partial curve, poor fit].
On to `COc1ccc(OC)c(S(=O)(=O)N2CCCC2C(=O)NC(C)c2ccccc2)c1` (stereo unspecified), for which the cell number change was -5.77%.
As for `COc1ccc(-c2csc(C3=C(O)CN(Cc4ccc(Cl)cc4)C3=N)n2)cc1OC`, the cell number change was -2.63%. For the same compound, the AC50 under setting [1] was 0.184 µM [rising, partial curve, poor fit]. The concentration at half-maximal activity (AC50) under setting [2] is 1.16 µM [rising, partial curve].
On to `CN(C)c1ccc(-c2ccc([C@H]3[C@@H]4C=CCC[C@@]4(C)C(=O)N3Cc3ccccc3)c(F)c2)cc1`, for which the cell number change is -29.5%. For the same compound, the AC50 under setting [2] was 29.1 µM [falling, single point].
As to `Cc1ccc(CNc2ncc(-c3ccc4c(c3)OCO4)n2C)cc1`, the cell number change is 4.61%. The concentration at half-maximal activity (AC50) under setting [2] was 4.61 µM [rising, partial curve].
As to `CC(=O)N1CCN(C(=O)c2ccccc2NS(=O)(=O)c2ccc(F)cc2)CC1`, the cell number change is 17.1%. The AC50 under setting [2] is 25.9 µM [falling, single point].
Regarding `Cn1c(=O)c(C(=O)CN2CCCc3ccccc32)c(N)n(Cc2ccccc2)c1=O`, the cell number change is -33.3%. Further, the concentration at half-maximal activity (AC50) under setting [1] is 18.4 µM [falling, single point]. Besides, the AC50 under setting [2] is 18.4 µM [falling, single point].
As for `Cc1ccccc1C(=O)OCc1cnc(Cl)s1`, the cell number change was determined as 9.59%. The AC50 under setting [2] is 1.16 µM [falling, single point].
With `CCOCCSc1nnc2nc(C)cc(C)n12`, the cell number change is 10.8%.
Still for that read-out and setting: the result for `COc1ccc(N2CCN(C(=O)c3cc(-c4ccc(F)cc4)[nH]c3C)CC2)cc1` reads -14.1%.
Regarding `CCN(CC(=O)Nc1c(F)cccc1F)C(=O)c1ccc(-c2ccc(C(C)=O)cc2)o1`, the cell number change was found to be 10.5%. For the same compound, the concentration at half-maximal activity (AC50) under setting [2] was 0.058 µM [falling, full curve, poor fit].
`Cc1ccccc1/C=N/NC(=O)Cn1cnc([N+](=O)[O-])n1`: the cell number change stood at 8.63%. Besides, the AC50 under setting [2] is 29.1 µM [falling, single point].
As to `Cc1ccc(/C=C/C(=O)Nc2ccc([N+](=O)[O-])cc2)o1`, the cell number change is -35.8%. The AC50 under setting [1] was 7.31 µM [falling, full curve, poor fit].
`Cc1ccc(S(=O)(=O)N2CCC(C(=O)N/N=C/c3ccncc3)CC2)cc1`: the cell number change was -51.2%.
As for `CC1CCCCN1C(=O)CSc1nc2cc3c(cc2c(=O)n1Cc1ccc2c(c1)OCO2)OCO3` (stereo unspecified), the AC50 was 0.82 µM [rising, full curve] under setting [1] and 0.92 µM [rising, full curve] under setting [2].
`CCOC(=O)c1c(S(=O)(=O)NCCc2ccccc2)c(C)n(C)c1C`: under setting [2], the AC50 is 1.64 µM [falling, partial curve].
As to `O=C(Oc1ccc2c(c1)OCO2)c1cc2c(s1)CCC2`, the cell number change was -10.1%. Besides, under setting [2], the AC50 was 11.6 µM [falling, partial curve, poor fit].
Consider `Cc1cc(C)nc(Nc2nc(=O)c3ccccc3s2)n1`, for which the cell number change came out at 35.2%. Further, the AC50 under setting [1] is 10.3 µM [rising, single point].
With `C=CCn1c(C)cc(C2=NNC(=Nc3ccc(C)cc3)SC2)c1C`, the cell number change stood at 29.6%. Further, under setting [2], the AC50 is 0.259 µM [falling, full curve, poor fit].
Take `CCOC(=O)N1CCN(c2c(NCCCN(CC)CC)c(=O)c2=O)CC1`: the cell number change was -29.8%.
In the case of `COc1ccc(/C=N/NC(=O)c2cc(-c3ccccc3)nc3ccccc23)c(OC)c1`, the cell number change is 5.19%. The half-maximal activity concentration (AC50) under setting [2] is 6.51 µM [falling, single point].
As to `O=C(CSc1nc2ccc(NC(=O)c3ccccc3C(=O)O)cc2s1)Nc1c(Cl)cccc1Cl`, the cell number change is -5.71%. Besides, the AC50 under setting [1] was 0.116 µM [rising, full curve, poor fit].
As to `Cn1c(NCCCO)nc2ccccc21`, the cell number change was found to be 19.2%. Besides, the AC50 under setting [2] is 0.206 µM [falling, full curve, poor fit].
